The supplement of paper PMC10849652
Some of the results follow.

The chains behind the UniProt entries cited, without tags or fusion partners. Where a name states a change or a piece, a line headed by the entry shows the natural chain unless it says otherwise.
UniProt Q9NW13: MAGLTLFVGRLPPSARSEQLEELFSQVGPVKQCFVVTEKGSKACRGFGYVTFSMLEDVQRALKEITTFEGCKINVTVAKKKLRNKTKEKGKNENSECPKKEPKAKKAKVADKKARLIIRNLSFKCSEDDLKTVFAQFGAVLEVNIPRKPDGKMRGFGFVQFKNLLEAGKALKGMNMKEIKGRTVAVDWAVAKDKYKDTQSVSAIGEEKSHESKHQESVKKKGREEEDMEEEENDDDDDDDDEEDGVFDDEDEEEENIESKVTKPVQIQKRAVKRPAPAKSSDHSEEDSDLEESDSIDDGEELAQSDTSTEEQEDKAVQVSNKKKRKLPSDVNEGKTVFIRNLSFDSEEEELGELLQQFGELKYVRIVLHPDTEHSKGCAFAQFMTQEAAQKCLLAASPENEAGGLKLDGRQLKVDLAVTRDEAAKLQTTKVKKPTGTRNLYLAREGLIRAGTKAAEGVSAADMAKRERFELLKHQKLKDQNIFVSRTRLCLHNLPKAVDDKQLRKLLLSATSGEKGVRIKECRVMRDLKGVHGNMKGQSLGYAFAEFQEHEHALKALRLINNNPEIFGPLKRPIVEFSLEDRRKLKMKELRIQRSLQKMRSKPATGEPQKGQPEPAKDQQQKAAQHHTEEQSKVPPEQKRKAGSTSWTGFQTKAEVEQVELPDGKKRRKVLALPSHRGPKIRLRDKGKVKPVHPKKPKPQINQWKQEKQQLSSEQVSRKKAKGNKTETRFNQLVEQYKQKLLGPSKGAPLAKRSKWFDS
UniProt P40938, whole entry, looked up: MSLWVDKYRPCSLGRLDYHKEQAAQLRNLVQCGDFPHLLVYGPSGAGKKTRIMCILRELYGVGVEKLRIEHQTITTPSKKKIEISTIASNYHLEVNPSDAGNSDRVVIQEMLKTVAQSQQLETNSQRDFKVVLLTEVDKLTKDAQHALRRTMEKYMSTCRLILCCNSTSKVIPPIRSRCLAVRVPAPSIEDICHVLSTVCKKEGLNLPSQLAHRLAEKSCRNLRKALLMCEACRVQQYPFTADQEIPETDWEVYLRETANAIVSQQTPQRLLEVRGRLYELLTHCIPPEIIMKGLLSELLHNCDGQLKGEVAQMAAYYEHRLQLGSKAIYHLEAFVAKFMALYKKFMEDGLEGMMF
UniProt Q96D71: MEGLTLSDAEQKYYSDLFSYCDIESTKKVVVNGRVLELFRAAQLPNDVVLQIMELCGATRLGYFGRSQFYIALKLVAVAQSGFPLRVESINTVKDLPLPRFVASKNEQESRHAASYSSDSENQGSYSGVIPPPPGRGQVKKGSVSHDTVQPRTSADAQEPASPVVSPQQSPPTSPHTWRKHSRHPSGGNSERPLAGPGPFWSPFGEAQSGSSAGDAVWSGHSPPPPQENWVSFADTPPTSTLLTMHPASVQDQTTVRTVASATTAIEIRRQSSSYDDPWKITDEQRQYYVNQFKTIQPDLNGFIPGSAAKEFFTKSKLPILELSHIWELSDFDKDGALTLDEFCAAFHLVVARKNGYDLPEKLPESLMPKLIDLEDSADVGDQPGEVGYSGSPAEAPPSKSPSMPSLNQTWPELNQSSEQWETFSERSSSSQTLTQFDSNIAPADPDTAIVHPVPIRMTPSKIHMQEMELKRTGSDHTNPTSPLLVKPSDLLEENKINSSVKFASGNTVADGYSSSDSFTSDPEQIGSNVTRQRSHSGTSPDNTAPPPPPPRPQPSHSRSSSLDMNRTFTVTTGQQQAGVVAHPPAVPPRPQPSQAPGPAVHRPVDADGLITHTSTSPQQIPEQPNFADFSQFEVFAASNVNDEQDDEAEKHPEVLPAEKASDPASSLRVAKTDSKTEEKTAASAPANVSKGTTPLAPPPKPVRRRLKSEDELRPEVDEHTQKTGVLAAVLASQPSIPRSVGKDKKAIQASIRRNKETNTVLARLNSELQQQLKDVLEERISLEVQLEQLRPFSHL
UniProt Q9GZR2: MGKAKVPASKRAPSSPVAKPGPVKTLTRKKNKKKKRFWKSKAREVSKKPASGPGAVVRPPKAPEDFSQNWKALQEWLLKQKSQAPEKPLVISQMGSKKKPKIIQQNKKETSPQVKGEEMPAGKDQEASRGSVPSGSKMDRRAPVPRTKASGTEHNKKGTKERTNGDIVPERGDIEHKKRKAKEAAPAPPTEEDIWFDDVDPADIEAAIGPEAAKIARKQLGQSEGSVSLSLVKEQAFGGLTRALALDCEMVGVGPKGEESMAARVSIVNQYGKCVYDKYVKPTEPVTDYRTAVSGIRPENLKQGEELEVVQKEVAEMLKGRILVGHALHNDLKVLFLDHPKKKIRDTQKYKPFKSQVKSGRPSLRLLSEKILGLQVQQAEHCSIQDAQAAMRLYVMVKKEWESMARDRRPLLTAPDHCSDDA
UniProt P35250, whole entry, looked up: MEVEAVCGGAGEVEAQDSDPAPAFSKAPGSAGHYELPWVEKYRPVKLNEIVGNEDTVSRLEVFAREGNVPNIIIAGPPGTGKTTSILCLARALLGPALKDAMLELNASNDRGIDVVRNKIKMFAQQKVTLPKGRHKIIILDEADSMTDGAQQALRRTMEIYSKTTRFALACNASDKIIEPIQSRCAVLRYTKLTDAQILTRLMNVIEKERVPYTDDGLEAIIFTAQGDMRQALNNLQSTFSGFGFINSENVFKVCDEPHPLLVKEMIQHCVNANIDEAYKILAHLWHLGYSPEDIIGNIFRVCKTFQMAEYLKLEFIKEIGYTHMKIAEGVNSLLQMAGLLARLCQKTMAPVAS
UniProt Q99708: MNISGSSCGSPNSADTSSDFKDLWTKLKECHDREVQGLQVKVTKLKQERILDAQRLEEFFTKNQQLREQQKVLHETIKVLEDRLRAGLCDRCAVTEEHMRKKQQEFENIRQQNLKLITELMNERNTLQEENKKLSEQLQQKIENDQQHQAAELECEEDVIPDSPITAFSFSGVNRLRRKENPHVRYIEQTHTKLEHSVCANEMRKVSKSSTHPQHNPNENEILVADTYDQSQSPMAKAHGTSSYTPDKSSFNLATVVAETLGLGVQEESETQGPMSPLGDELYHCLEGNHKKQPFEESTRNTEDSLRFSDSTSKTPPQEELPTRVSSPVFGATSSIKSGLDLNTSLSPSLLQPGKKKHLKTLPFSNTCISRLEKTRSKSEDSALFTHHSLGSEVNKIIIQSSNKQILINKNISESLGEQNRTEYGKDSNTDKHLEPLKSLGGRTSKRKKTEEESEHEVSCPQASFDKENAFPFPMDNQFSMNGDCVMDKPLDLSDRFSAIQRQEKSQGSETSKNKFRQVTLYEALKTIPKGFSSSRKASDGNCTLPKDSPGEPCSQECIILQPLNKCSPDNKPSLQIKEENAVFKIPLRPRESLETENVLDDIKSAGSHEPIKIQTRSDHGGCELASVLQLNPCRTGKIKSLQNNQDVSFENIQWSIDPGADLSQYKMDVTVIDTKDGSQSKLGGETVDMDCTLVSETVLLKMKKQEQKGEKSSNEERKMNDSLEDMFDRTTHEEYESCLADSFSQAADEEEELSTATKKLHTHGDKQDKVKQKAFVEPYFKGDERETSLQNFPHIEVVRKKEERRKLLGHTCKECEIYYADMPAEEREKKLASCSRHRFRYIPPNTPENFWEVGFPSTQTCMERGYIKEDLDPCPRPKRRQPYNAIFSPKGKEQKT
UniProt Q08999: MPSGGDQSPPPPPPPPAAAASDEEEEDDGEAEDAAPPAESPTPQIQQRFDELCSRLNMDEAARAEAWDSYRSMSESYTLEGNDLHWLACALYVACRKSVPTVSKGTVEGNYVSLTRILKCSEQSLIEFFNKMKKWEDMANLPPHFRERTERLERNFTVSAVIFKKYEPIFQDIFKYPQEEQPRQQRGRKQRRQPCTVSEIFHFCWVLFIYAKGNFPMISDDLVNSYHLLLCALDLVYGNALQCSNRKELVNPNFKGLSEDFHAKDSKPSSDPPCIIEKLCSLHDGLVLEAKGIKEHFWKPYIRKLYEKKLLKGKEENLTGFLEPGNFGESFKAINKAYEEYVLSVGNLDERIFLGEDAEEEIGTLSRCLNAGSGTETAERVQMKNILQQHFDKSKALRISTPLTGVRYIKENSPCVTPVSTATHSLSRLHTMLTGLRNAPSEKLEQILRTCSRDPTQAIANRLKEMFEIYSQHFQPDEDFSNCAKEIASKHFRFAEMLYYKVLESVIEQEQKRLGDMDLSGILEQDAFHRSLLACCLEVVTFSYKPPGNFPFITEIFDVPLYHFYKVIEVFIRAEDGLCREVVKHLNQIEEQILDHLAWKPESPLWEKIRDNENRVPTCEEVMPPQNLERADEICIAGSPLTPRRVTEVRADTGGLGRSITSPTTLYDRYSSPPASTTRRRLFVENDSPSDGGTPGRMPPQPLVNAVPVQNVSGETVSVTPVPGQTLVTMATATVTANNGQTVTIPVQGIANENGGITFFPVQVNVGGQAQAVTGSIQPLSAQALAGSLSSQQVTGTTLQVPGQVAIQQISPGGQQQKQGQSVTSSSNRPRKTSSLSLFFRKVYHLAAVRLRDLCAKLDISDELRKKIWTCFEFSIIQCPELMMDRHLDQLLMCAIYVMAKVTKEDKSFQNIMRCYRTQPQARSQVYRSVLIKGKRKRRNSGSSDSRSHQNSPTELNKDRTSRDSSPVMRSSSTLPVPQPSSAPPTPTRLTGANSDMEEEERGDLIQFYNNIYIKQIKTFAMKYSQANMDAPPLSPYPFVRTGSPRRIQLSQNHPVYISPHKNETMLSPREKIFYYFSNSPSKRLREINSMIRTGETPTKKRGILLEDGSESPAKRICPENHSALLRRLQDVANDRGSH
UniProt Q969G6: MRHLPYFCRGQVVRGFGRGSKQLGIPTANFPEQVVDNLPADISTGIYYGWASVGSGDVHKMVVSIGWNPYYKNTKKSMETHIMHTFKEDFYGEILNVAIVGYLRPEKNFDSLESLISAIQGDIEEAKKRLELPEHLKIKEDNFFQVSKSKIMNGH
UniProt O43566: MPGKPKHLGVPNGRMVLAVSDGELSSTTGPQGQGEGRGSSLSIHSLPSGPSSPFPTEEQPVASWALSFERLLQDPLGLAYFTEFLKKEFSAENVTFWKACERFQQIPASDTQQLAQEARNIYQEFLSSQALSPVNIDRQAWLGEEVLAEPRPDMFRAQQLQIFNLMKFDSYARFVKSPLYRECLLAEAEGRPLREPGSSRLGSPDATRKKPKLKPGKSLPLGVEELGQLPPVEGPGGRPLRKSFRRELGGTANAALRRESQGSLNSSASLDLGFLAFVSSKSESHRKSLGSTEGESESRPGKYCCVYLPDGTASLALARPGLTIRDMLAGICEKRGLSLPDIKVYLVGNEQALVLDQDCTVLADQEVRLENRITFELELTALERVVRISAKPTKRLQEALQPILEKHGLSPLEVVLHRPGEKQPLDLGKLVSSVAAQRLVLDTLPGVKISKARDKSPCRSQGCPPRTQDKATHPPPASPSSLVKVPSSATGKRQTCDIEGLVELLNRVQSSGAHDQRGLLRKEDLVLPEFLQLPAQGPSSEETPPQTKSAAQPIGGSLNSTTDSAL
UniProt A6NED2: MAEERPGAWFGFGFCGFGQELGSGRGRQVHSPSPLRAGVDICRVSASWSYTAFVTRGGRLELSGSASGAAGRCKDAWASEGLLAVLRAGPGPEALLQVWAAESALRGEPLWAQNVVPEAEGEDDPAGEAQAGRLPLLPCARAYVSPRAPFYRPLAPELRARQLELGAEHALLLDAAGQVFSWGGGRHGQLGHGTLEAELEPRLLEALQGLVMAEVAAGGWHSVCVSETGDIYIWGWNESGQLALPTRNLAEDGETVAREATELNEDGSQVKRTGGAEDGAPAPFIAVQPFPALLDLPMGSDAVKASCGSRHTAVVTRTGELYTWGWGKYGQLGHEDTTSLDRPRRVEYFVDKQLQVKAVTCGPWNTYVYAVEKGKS
UniProt Q15293: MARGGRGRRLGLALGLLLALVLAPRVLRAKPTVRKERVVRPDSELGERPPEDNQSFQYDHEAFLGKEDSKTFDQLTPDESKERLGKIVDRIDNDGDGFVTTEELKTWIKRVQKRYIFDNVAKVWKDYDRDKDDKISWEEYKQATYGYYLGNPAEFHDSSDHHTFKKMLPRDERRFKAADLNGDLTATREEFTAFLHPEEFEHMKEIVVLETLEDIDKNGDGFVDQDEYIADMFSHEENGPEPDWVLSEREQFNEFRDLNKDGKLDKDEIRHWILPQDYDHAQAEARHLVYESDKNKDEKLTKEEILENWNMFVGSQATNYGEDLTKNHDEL
UniProt Q16576, whole entry, looked up: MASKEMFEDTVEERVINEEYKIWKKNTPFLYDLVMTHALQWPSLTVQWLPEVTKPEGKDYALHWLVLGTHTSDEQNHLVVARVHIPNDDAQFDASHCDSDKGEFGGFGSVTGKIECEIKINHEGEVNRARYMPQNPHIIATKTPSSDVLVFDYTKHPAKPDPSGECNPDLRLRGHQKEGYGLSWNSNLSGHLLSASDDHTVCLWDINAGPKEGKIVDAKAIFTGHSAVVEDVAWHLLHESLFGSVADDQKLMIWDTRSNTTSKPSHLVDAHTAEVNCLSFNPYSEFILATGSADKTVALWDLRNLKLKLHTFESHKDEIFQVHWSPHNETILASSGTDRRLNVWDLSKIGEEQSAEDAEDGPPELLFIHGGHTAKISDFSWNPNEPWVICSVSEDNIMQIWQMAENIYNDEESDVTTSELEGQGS

Assays:
Assay in all cases: log2 fold change, soluble protein after heating vs DMSO (PISA); higher = thermal stabilisation; K562 lysate, 10 uM; active = over 0.2 and 3.5 SD of the protein, either way, in both replicates (recomputed)
[1] = compound: Cc1cn(-c2cc(NC(=O)c3ccc(C)c(Nc4nccc(-c5cccnc5)n4)c3)cc(C(F)(F)F)c2)cn1 [nilotinib]
Method in brief: (§1)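 Quantification was by TMTpro 16plex LC-MS/MS with equalised channel sums, applied to the supernatant after 21,000xg for 90 min. Samples were crude K562 extract at 1 mg/mL protein in PBS pH 7.4 with 1 mM MgCl2, treated with 10 μM compound for 30 min, heated for 3 min across 48°C-58°C, pooled and brought to 0.5% NP-40 at 4°C. Values are log-two fold changes in thermal stability relative to solvent controls, from duplicates.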

[2] = compound: Cc1nc(Nc2n[nH]c3c2CN(C(=O)N[C@H](CN(C)C)c2ccccc2)C3(C)C)c2sccc2n1
Method in brief: as §1

[3] = compound: Cc1nc(Nc2ncc(C(=O)Nc3c(C)cccc3Cl)s2)cc(N2CCN(CCO)CC2)n1 [dasatinib]
Method in brief: as §1

[4] = compound: Cc1ncc(-c2ccnc(Nc3ccc(S(C)(=O)=O)cc3)n2)n1C(C)C
Method in brief: as §1

[5] = compound: Cn1cc(-c2ccc3c(c2)CCN3C(=O)Cc2cccc(C(F)(F)F)c2)c2c(N)ncnc21
Method in brief: as §1

[6] = compound: Cn1cc(CNCC2CCN(c3ncc(C(=O)NO)cn3)CC2)c2ccccc21 [quisinostat]
Method in brief: as §1

[7] = compound: Cn1cncc1[C@@](N)(c1ccc(Cl)cc1)c1ccc2c(c1)c(-c1cccc(Cl)c1)cc(=O)n2C [tipifarnib]
Method in brief: as §1

[8] = compound: NC(=O)Nc1cc(-c2cccc(F)c2)sc1C(=O)N[C@H]1CCCNC1
Method in brief: as §1

[9] = compound: NC(=O)c1cnc(N[C@@H]2CCCC[C@@H]2N)nc1Nc1cccc(-n2nccn2)c1
Method in brief: as §1

[10] = compound: NC1(c2ccc(-c3nc4ccn5c(=O)[nH]nc5c4cc3-c3ccccc3)cc2)CCC1
Method in brief: as §1

Measured: log2 fold change

RBM28 (UniProt Q9NW13)
inactive: [1] -0.002 | [2] -0.022 | [3] -0.019 | [4] -0.014 | [5] 0.015 | [6] -0.018 | [7] 0.006 | [8] 0.024 | [9] 0.006 | [10] -0.045

RBM19 (UniProt Q9Y4C8)
inactive: [1] -0.018 | [2] -0.067 | [3] 0.082 | [4] -0.016 | [5] -0.079 | [6] 0.14 | [7] 0.009 | [8] -0.153 | [9] -0.019 | [10] -0.033

RFC3 (UniProt P40938)
inactive: [1] 0 | [2] -0.05 | [3] -0.036 | [4] 0.034 | [5] 0.021 | [6] -0.081 | [7] 0.002 | [8] 0.094 | [9] 0.01 | [10] -0.006

RBM5 (UniProt P52756)
inactive: [1] 0.146 | [2] -0.085 | [3] 0.073 | [4] 0.028 | [5] -0.003 | [6] 0.027 | [7] -0.015 | [8] 0.009 | [9] 0.114 | [10] 0.185

RBM23 isoform 2 (UniProt Q86U06)
inactive: [1] 0.172 | [2] 0.021 | [3] -0.004 | [4] -0.065 | [5] -0.061 | [6] -0.047 | [7] -0.168 | [8] -0.024 | [9] -0.056 | [10] 0.021

RBBP6 (UniProt Q7Z6E9)
inactive: [1] -0.044 | [2] 0.031 | [3] -0.009 | [4] 0.003 | [5] -0.043 | [6] -0.022 | [7] -0.017 | [8] -0.003 | [9] 0.027 | [10] 0.04

RC3H1 (UniProt Q5TC82)
inactive: [1] 0.039 | [2] -0.088 | [3] -0.059 | [4] -0.035 | [5] 0.067 | [6] 0.083 | [7] 0.067 | [8] 0.006 | [9] -0.036 | [10] -0.021

REPS1 (UniProt Q96D71)
inactive: [1] 0.006 | [2] -0.013 | [3] 0.012 | [4] 0.002 | [5] 0.012 | [6] -0.065 | [7] -0.025 | [8] 0.011 | [9] 0.034 | [10] -0.005

Reprinted at random: two records from the list
RBM5 (UniProt P52756)
inactive: [1] 0.146 | [2] -0.085 | [3] 0.073 | [4] 0.028 | [5] -0.003 | [6] 0.027 | [7] -0.015 | [8] 0.009 | [9] 0.114 | [10] 0.185

RBM23 isoform 2 (UniProt Q86U06)
inactive: [1] 0.172 | [2] 0.021 | [3] -0.004 | [4] -0.065 | [5] -0.061 | [6] -0.047 | [7] -0.168 | [8] -0.024 | [9] -0.056 | [10] 0.021

Additional records.

REXO4 (UniProt Q9GZR2)
inactive: [1] -0.001 | [2] -0.009 | [3] -0.008 | [4] 0.021 | [5] 0.008 | [6] 0.013 | [7] 0.015 | [8] 0.03 | [9] -0.045 | [10] 0.034

RBCK1 (UniProt Q9BYM8)
inactive: [1] -0.043 | [2] -0.002 | [3] 0.024 | [4] -0.015 | [5] 0.055 | [6] -0.109 | [7] 0.038 | [8] 0.063 | [9] -0.012 | [10] 0.002

RBBP5 isoform 2 (UniProt Q15291)
inactive: [1] -0.156 | [2] 0.19 | [3] -0.04 | [4] -0.28 | [5] 0.018 | [6] -0.071 | [7] -0.048 | [8] 0.043 | [9] 0.129

RECQL (UniProt P46063)
inactive: [1] 0.052 | [2] 0.007 | [3] -0.011 | [4] 0.033 | [5] 0.005 | [6] -0.021 | [7] 0.005 | [8] 0.019 | [9] -0.002 | [10] -0.011

RARS (UniProt P54136)
inactive: [1] 0.004 | [2] 0 | [3] -0.074 | [4] -0.017 | [5] 0.038 | [6] -0.017 | [7] 0.006 | [8] 0.049 | [9] 0.015 | [10] -0.023

RFC2 (UniProt P35250)
inactive: [1] 0.005 | [2] -0.018 | [3] -0.027 | [4] -0.012 | [5] 0.062 | [6] -0.04 | [7] -0.014 | [8] 0.036 | [9] 0.014 | [10] -0.05

REPIN1 isoform 4 (UniProt Q9BWE0)
inactive: [1] 0.034 | [2] 0.013 | [3] 0.055 | [4] -0.023 | [5] -0.035 | [6] -0.021 | [7] 0.007 | [8] 0.043 | [9] 0.005 | [10] -0.013

RETREG3 (UniProt Q86VR2)
inactive: [1] -0.006 | [2] -0.015 | [3] -0.016 | [4] 0.02 | [5] 0.039 | [6] -0.147 | [7] -0.097 | [8] 0.044 | [9] -0.016 | [10] -0.081

RBBP8 isoform 2 (UniProt Q99708)
inactive: [1] -0.07 | [2] -0.003 | [3] 0.063 | [4] 0.081 | [5] 0.031 | [6] 0.074 | [7] 0.022 | [8] 0.033 | [9] 0.035 | [10] -0.026

RBM17 (UniProt Q96I25)
inactive: [1] -0.027 | [2] -0.011 | [3] -0.048 | [4] 0.003 | [5] 0.029 | [6] -0.014 | [7] -0.023 | [8] -0.006 | [9] -0.005 | [10] -0.027

RBL2 (UniProt Q08999)
inactive: [1] -0.018 | [2] 0.032 | [3] -0.016 | [4] 0.012 | [5] 0.081 | [6] 0.046 | [7] -0.042 | [8] -0.055 | [9] -0.091

RCOR1 (UniProt Q9UKL0)
inactive: [1] -0.024 | [2] -0.006 | [3] -0.054 | [4] 0.009 | [5] 0.003 | [6] 0.015 | [7] -0.022 | [8] 0.043 | [9] -0.015 | [10] 0.099

RHAG (UniProt Q02094)
inactive: [1] 0.041 | [2] -0.013 | [3] -0.029 | [4] -0.016 | [5] -0.06 | [6] -0.142 | [7] 0.011 | [8] 0.011 | [9] -0.024 | [10] -0.002

RFK (UniProt Q969G6)
inactive: [1] -0.032 | [2] 0.062 | [3] 0.025 | [4] -0.094 | [5] -0.02 | [6] -0.043 | [7] -0.019 | [8] 0.091 | [9] 0.016 | [10] -0.052

RGS14 (UniProt O43566)
inactive: [1] -0.184 | [2] 0.036 | [3] 0.029 | [4] 0.144 | [5] 0.126 | [6] -0.054 | [7] -0.089 | [8] 0.071 | [9] 0.02 | [10] -0.087

RCCD1 (UniProt A6NED2)
inactive: [1] -0.015 | [2] -0.01 | [3] -0.001 | [4] -0.05 | [5] -0.055 | [6] 0.032 | [7] -0.015 | [8] 0.005 | [9] -0.001 | [10] -0.118

RCN1 (UniProt Q15293)
inactive: [1] -0.033 | [2] 0.012 | [3] 0.071 | [4] 0.023 | [5] -0.036 | [6] 0.148 | [7] -0.001 | [8] 0.046 | [9] -0.001 | [10] -0.019

RCN2 isoform 2 (UniProt Q14257)
inactive: [1] 0.033 | [2] -0.007 | [3] -0.026 | [4] 0.086 | [5] 0.025 | [6] -0.003 | [7] 0.068 | [8] 0.043 | [9] -0.019 | [10] 0.035

RBBP7 (UniProt Q16576)
inactive: [1] -0.02 | [2] -0.002 | [3] 0.029 | [4] 0.007 | [5] -0.006 | [6] -0.041 | [7] 0.014 | [8] 0.04 | [9] -0.003 | [10] 0.039
